Measured values: the supplement of paper PMC10849652
The list shows a part of the results.

Sequences of proteins named here, by UniProt entry; tags and fusion partners are left off. A change or cut given only in a name is not applied to a line headed by its entry.
UniProt Q6IAN0: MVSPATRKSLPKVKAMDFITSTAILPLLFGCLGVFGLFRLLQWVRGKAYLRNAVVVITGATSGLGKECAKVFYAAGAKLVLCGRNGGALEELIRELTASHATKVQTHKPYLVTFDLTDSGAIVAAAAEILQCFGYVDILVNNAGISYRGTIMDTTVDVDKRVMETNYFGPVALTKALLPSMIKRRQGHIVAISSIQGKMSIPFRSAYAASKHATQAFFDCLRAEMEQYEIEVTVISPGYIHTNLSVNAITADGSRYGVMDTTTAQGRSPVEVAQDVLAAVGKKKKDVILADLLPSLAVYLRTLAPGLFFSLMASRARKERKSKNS
UniProt Q9NYC9: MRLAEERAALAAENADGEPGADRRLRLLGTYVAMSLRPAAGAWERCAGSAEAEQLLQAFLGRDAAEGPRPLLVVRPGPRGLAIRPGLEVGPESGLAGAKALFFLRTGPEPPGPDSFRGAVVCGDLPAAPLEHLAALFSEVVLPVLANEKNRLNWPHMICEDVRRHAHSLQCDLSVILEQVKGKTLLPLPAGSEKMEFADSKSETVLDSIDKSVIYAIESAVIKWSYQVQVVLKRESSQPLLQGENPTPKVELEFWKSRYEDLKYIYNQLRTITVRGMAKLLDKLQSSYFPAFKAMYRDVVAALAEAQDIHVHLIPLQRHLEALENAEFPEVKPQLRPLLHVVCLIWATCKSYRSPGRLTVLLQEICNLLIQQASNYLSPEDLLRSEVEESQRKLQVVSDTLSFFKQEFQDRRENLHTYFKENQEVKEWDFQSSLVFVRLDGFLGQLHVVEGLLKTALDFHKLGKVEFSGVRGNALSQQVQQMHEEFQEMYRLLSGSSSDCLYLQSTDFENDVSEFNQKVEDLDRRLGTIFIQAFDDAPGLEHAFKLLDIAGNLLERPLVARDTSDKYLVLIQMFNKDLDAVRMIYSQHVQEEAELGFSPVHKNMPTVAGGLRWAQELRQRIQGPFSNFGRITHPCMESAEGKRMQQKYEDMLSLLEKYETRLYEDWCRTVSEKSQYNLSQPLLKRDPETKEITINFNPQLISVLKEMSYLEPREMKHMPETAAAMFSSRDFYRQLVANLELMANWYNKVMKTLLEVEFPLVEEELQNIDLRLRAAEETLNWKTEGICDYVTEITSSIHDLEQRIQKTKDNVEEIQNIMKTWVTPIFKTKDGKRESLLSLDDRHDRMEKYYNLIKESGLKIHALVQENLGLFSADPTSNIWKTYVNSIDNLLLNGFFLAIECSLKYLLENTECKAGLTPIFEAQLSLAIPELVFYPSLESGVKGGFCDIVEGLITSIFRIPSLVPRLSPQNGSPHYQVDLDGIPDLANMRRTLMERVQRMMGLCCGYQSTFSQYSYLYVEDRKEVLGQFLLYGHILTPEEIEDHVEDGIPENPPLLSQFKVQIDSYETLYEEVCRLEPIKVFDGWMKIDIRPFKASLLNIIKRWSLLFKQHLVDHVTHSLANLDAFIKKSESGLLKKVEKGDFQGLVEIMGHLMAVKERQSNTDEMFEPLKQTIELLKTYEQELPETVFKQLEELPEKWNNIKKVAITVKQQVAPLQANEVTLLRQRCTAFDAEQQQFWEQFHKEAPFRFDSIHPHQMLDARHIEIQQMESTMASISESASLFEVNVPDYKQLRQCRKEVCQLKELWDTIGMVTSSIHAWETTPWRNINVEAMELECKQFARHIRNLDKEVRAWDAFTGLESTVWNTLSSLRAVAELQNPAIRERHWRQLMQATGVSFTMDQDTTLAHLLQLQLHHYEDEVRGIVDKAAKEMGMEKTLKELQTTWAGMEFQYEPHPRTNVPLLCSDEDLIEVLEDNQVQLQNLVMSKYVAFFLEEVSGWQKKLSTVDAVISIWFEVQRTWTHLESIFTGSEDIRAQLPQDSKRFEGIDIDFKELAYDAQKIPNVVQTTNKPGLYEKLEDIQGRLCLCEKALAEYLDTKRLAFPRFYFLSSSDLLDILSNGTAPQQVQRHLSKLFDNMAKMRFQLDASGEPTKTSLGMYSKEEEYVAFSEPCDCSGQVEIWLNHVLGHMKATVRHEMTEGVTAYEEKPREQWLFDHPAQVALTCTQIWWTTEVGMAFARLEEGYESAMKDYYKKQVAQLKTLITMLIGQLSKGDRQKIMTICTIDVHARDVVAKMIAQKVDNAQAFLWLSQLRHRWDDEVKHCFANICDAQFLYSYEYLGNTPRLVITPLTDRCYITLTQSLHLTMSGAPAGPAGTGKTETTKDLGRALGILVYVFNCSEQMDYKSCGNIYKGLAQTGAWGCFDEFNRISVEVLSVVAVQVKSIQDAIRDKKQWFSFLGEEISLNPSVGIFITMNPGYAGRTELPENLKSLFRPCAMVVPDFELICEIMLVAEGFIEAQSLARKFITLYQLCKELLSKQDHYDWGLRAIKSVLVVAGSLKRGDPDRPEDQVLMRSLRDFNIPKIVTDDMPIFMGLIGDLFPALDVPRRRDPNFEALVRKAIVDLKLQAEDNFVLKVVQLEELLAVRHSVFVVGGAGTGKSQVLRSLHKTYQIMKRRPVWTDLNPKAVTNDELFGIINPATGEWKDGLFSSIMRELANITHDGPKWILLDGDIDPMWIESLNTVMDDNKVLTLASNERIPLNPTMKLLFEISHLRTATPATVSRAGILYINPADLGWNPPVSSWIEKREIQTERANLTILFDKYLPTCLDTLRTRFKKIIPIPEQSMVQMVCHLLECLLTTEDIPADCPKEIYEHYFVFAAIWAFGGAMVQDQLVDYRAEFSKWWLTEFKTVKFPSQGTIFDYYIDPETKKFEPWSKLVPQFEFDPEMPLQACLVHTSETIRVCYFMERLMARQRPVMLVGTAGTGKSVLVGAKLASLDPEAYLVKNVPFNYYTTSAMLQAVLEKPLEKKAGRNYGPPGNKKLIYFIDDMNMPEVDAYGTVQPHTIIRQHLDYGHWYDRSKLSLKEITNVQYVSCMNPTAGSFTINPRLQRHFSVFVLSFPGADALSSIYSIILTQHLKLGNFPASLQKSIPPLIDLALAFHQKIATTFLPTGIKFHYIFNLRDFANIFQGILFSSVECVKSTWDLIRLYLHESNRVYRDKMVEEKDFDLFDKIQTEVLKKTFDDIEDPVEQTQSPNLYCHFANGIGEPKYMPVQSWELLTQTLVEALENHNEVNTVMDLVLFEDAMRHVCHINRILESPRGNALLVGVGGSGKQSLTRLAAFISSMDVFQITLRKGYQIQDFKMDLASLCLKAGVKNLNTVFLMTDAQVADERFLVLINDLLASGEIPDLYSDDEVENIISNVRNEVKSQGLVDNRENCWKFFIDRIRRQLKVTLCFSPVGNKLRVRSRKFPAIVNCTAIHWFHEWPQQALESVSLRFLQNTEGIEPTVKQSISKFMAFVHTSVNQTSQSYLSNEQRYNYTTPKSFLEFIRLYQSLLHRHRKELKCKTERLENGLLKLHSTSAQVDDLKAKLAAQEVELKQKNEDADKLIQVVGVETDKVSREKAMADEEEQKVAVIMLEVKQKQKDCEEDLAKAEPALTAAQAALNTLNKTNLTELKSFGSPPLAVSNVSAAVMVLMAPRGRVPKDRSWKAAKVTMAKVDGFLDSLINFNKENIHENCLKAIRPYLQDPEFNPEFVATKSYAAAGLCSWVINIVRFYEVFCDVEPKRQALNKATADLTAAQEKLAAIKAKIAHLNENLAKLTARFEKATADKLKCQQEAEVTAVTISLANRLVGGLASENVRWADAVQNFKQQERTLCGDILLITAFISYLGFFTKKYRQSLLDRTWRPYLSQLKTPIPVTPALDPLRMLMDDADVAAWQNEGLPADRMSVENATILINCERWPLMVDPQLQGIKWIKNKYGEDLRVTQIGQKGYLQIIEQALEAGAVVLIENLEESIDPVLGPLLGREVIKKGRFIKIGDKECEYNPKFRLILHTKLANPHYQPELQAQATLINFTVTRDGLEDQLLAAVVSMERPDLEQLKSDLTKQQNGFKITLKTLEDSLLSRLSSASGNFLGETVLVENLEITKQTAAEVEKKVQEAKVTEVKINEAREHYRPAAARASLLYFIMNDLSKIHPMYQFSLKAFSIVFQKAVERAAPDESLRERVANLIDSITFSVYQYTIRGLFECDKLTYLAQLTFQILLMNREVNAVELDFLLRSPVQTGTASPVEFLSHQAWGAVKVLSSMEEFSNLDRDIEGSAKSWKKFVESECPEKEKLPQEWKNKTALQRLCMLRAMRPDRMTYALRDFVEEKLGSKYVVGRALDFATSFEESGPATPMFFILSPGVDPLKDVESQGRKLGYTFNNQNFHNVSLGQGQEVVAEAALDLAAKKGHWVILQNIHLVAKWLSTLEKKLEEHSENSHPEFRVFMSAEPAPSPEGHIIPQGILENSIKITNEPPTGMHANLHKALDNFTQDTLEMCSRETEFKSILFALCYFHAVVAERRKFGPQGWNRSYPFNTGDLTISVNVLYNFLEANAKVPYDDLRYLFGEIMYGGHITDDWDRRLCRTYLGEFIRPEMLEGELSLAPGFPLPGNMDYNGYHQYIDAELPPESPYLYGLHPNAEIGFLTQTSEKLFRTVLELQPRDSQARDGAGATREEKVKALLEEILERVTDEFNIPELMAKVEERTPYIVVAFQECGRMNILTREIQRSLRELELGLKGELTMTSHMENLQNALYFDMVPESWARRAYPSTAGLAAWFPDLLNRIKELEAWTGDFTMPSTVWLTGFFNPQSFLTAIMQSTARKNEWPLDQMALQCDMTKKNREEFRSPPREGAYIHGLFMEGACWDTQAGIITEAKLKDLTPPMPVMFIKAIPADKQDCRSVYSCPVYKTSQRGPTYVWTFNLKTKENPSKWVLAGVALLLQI
UniProt Q16854: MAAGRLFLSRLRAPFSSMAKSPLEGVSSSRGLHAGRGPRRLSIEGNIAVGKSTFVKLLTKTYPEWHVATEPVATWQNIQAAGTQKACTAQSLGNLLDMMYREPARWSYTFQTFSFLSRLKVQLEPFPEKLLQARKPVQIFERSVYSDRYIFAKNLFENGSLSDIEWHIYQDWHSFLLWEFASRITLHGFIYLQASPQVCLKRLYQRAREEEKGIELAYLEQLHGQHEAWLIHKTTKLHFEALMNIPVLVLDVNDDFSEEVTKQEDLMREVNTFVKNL
UniProt Q9BUN8: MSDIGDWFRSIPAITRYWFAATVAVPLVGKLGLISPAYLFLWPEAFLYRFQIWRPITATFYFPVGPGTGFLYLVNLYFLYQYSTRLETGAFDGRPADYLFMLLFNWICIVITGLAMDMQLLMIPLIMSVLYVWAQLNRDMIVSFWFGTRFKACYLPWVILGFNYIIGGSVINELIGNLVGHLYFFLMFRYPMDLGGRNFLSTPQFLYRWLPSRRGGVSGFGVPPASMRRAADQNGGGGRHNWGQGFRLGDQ
UniProt Q86XP3: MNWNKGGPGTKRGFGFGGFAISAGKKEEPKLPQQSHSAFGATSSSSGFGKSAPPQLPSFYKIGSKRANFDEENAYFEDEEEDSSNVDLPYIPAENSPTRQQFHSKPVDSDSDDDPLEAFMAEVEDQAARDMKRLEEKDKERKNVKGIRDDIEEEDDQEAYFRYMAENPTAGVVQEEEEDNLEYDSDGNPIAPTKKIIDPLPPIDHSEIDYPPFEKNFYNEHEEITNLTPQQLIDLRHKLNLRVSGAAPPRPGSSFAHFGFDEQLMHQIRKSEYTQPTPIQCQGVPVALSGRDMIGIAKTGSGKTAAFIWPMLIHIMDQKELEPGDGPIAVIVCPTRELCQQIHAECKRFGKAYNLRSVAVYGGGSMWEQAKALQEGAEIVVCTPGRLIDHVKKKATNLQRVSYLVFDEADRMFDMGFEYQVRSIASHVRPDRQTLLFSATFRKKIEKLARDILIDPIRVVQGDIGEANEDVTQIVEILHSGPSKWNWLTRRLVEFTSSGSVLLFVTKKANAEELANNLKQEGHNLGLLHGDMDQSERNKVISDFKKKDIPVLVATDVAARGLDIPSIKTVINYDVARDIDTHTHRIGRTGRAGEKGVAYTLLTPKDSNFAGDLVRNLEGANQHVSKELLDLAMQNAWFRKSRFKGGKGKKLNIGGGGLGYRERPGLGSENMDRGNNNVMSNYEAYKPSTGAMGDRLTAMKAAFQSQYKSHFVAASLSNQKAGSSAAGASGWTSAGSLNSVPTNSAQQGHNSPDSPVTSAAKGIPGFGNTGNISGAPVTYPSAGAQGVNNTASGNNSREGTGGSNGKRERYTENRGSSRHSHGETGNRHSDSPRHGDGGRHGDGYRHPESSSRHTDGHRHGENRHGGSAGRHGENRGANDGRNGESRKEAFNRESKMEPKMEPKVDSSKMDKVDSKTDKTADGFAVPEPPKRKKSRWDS
UniProt Q96HY6: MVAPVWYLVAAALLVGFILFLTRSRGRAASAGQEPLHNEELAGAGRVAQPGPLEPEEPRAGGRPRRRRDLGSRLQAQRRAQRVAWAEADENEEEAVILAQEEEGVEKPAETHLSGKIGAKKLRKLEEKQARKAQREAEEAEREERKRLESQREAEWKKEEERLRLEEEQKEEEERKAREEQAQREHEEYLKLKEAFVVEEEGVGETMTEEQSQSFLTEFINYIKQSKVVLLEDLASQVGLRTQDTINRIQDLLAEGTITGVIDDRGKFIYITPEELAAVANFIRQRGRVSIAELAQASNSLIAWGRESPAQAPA

Experiments:
Experiment in all cases: log2 fold change, soluble protein after heating vs DMSO (PISA); higher = thermal stabilisation; K562 cells, 10 uM, 30 min; active = over 0.2 and 3.5 SD of the protein, either way, in both replicates (recomputed)
erlotinib = compound: C#Cc1cccc(Nc2ncnc3cc(OCCOC)c(OCCOC)cc23)c1 [erlotinib]
How it was run: (§1)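 Aliquots of K562 cells (2×10^6 cells/mL) treated with 10 μM compound for 30 min were heated for 3 min over 48°C-58°C. After pooling and extraction in PBS with 0.5% NP-40 at 4°C, soluble protein from a 21,000xg, 90 min spin was quantified by TMTpro 16plex LC-MS/MS with channel sums equalised. Thermal stability is expressed against control samples, from duplicates, as a log2 fold change.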

[1] = compound: C/C(=N\NC(=O)C1=CC(=CC=C1)S(=O)(=O)N2CCOCC2)/C3=C(C=CC(=C3)Cl)O
How it was run: as §1

[2] = compound: C1=CC(=C(C=C1Cl)C2=NC3=NC=CN=C3C(=N2)NC4=CC=NC=C4)F
How it was run: as §1

[3] = compound: C1=CC(=CC=C1C2=NC3=C(N2)C=C(C=C3)C(=O)N)OC4=CC=C(C=C4)Cl
How it was run: as §1

[4] = compound: C1=CC2=C(C=CC(=C2)/C=C\3/C(=O)NC(=NCC4=CC=CS4)S3)N=C1
How it was run: as §1

[5] = compound: C1=CC2=NC=CN=C2C=C1/C=C/3\C(=O)NC(=O)S3
How it was run: as §1

[6] = compound: C1=CC=C(C=C1)C2=NC(=C(N2)C3=CC=NC=C3)C4=CC(=C(C=C4)Cl)O
How it was run: as §1

[7] = compound: C1=CC=C2C(=C1)C3=NNC4=CC=CC(=C43)C2=O
How it was run: as §1

[8] = compound: C1CCN(C1)C(=O)NC2=CC=CC(=C2)NC3=NC=C(C(=N3)NCCC4=CN=CN4)Br
How it was run: as §1

[9] = compound: C1CN(CCC1(CC2=CC=C(C=C2)Cl)N)C3=NC=NC4=C3C=CN4
How it was run: as §1

Measured: log2 fold change

DHCR24 (UniProt Q15392)
inactive: erlotinib 0.393 | [1] 0.068 | [2] -0.151 | [3] 0.092 | [4] 0.081 | [5] -0.024 | [6] 0.03 | [7] -0.009 | [8] -0.066 | [9] -0.074

DHRS7B (UniProt Q6IAN0)
inactive: erlotinib -0.039 | [1] 0.07 | [2] 0.011 | [3] 0.009 | [4] 0.027 | [5] 0.012 | [6] 0.144 | [7] 0.034 | [8] -0.037 | [9] 0.058

DNAH9 (UniProt Q9NYC9)
inactive: erlotinib 0.007 | [1] -0.029 | [2] 0.028 | [3] -0.029 | [4] -0.072 | [5] 0.005 | [6] -0.051 | [7] -0.025 | [8] 0.027 | [9] 0.078

2 successive entries from above:
DHRS7B (UniProt Q6IAN0)
inactive: erlotinib -0.039 | [1] 0.07 | [2] 0.011 | [3] 0.009 | [4] 0.027 | [5] 0.012 | [6] 0.144 | [7] 0.034 | [8] -0.037 | [9] 0.058

DNAH9 (UniProt Q9NYC9)
inactive: erlotinib 0.007 | [1] -0.029 | [2] 0.028 | [3] -0.029 | [4] -0.072 | [5] 0.005 | [6] -0.051 | [7] -0.025 | [8] 0.027 | [9] 0.078

(continued)

DIMT1 (UniProt Q9UNQ2)
inactive: erlotinib -0.169 | [1] -0.063 | [2] -0.374 | [3] 0.049 | [4] -0.037 | [5] -0.009 | [6] -0.022 | [7] 0.037 | [8] 0.026 | [9] -0.136

DFFA (UniProt O00273)
inactive: erlotinib 0.004 | [1] -0.005 | [2] 0.066 | [3] -0.003 | [4] -0.008 | [5] 0.024 | [6] -0.003 | [7] -0.028 | [8] -0.035 | [9] 0.008

DHRS4 (UniProt Q9BTZ2)
inactive: erlotinib -0.008 | [1] 0.012 | [2] 0.08 | [3] 0.027 | [4] -0.022 | [5] 0.028 | [6] -0.071 | [7] -0.012 | [8] -0.003 | [9] -0.015

DGUOK (UniProt Q16854)
inactive: erlotinib -0.015 | [1] -0.03 | [2] 0.041 | [3] 0.043 | [4] 0.029 | [5] 0.055 | [6] -0.023 | [7] -0.008 | [8] 0.022 | [9] 0.016

DLGAP5 (UniProt Q15398)
inactive: erlotinib 0.06 | [1] -0.025 | [2] -0.071 | [3] 0.01 | [4] 0.048 | [5] 0.042 | [6] -0.024 | [7] -0.052 | [8] -0.022 | [9] -0.118

DLG1 isoform 2 (UniProt Q12959)
inactive: erlotinib 0.028 | [1] -0.019 | [2] 0.015 | [3] 0.009 | [4] 0.016 | [5] 0.062 | [6] 0.025 | [7] 0.007 | [8] 0.002 | [9] -0.048

DERL1 (UniProt Q9BUN8)
inactive: erlotinib -0.018 | [1] 0.011 | [2] 0.029 | [3] -0.01 | [4] 0.032 | [5] -0.009 | [6] 0.006 | [7] -0.031 | [8] -0.023 | [9] 0.034

DDX5 (UniProt P17844)
inactive: erlotinib 0.13 | [1] 0.101 | [2] 0.072 | [3] 0 | [4] -0.003 | [5] -0.046 | [6] 0.059 | [7] -0.032 | [8] -0.061 | [9] -0.127

DDX19B (UniProt Q9UMR2)
inactive: erlotinib 0.063 | [1] 0.077 | [2] 0.041 | [3] -0.056 | [4] 0.038 | [5] 0.022 | [6] 0.076 | [7] 0.033 | [8] -0.026 | [9] 0.061

DDI2 isoform 3 (UniProt Q5TDH0)
inactive: erlotinib 0.025 | [1] 0.052 | [2] -0.082 | [3] 0.022 | [4] 0.047 | [5] 0.016 | [6] -0.018 | [7] -0.001 | [8] 0.011 | [9] -0.014

DDX42 (UniProt Q86XP3)
inactive: erlotinib 0.032 | [1] 0.147 | [2] 0.251 | [3] -0.115 | [4] 0.225 | [5] -0.047 | [6] 0.114 | [7] -0.153 | [8] -0.042 | [9] 0.043

DDRGK1 (UniProt Q96HY6)
inactive: erlotinib 0.027 | [1] 0 | [2] 0.005 | [3] 0.016 | [4] -0.048 | [5] -0.024 | [6] -0.008 | [7] -0.068 | [8] 0.115 | [9] 0.019
